According to PMC7793253, “CEP290 is essential for the initiation of ciliary transition zone assembly” (PLoS Biology, 2020):
Like-named read-outs stand apart in the source and are kept apart here. No constants are given. Whether binding was seen depends on the method and setting. For some of these results: In cells and extracts the contact can be indirect. Some binding calls cover weakened binding; strength is not graded here. Tags and fused reporters may be left off the sequences shown. Values belong to the binder of their own block, whether it stands above or below them.

Key:
[1] = molecular target: T1, CEP290-N-GFP (aa 1–878) (Drosophila) (UniProt Q9W0M1); experiment: co-IP; Drosophila S2 cells transiently transfected, 48 h; lysis in 10 mM Tris pH 7.5, 150 mM NaCl, 0.5 mM EDTA, 0.5% NP-40; anti-GFP nanobody agarose (GFP-trap) beads, 1 h at 4°C; blot with anti-GFP and anti-HA
T1 sequence: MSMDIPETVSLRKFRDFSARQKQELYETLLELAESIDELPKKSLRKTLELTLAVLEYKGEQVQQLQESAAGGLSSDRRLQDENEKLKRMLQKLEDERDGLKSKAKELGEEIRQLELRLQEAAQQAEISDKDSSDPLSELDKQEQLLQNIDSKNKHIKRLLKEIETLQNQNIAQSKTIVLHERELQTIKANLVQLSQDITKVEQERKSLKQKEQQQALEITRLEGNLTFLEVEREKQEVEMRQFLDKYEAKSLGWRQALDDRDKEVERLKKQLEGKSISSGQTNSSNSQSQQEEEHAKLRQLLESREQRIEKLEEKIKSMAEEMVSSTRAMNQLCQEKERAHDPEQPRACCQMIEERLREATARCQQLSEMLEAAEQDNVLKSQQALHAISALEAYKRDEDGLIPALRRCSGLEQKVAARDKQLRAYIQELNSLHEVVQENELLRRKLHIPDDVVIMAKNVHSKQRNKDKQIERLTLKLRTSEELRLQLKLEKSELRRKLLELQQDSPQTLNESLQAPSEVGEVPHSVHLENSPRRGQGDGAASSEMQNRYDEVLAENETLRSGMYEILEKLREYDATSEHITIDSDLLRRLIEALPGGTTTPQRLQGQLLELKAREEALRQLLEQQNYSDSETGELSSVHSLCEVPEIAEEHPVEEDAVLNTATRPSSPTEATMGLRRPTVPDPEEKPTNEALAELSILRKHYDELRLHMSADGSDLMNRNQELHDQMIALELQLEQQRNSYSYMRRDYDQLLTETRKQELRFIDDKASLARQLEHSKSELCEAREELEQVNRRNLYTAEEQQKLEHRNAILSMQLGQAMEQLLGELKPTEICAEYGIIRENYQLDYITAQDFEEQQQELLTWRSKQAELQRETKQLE

GST-DZIP1-C (aa 294–737) [2] = molecular target: T2, GST-DZIP1-C (aa 294–737) (Drosophila, UniProt Q9VC70 294-737); experiment: pull-down; GST pull-down: purified His-tagged proteins incubated with GST, GST-DZIP1-N or GST-DZIP1-C in 25 mM Tris-HCl pH 7.4, 150 mM NaCl, 0.5% Triton X-100, 1 mM dithiothreitol, 10% glycerol, overnight at 4°C; blot with anti-His antibodies; both purified
T2 construct: Cloned into pGEX-4T-1; also called C-terminus of DZIP1; source: E. coli BL21 (DE3), purified (Glutathione Sepharose)
T2 sequence (looked up): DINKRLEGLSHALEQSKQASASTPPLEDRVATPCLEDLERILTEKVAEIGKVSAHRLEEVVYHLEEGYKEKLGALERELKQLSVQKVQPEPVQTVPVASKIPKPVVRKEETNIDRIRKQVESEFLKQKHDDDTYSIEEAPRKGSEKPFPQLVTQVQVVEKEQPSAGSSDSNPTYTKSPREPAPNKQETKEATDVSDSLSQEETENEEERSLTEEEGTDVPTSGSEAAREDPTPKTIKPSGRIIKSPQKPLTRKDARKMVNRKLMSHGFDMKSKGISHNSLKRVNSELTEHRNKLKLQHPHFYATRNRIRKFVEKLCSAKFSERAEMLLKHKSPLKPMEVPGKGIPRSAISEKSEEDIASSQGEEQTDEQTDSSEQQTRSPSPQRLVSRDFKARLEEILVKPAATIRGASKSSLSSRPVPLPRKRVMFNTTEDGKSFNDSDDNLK

GST-DZIP1-N (aa 1–293) = molecular target: T3, GST-DZIP1-N (aa 1–293) (Drosophila, UniProt Q9VC70 1-293); experiment: as above
T3 construct: Cloned into pGEX-4T-1; also called N-terminus of DZIP1; source: E. coli BL21 (DE3), purified (Glutathione Sepharose)
T3 sequence (looked up): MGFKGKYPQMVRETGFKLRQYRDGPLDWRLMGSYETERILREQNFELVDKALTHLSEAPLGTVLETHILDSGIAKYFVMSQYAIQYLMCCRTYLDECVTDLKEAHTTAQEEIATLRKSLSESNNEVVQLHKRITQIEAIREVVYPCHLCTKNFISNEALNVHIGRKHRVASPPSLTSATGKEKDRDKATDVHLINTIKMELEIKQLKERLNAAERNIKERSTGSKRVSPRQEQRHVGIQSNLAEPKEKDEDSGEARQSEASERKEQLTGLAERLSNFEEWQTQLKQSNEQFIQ

GST-DZIP1-C (aa 294–737) [3] = molecular target: T2, GST-DZIP1-C (aa 294–737); experiment: as above; remark: listed apart in the source

binding [1]: binds
B1: DZIP1-HA (protein, UniProt Q9VC70 1-737)
chain: MGFKGKYPQMVRETGFKLRQYRDGPLDWRLMGSYETERILREQNFELVDKALTHLSEAPLGTVLETHILDSGIAKYFVMSQYAIQYLMCCRTYLDECVTDLKEAHTTAQEEIATLRKSLSESNNEVVQLHKRITQIEAIREVVYPCHLCTKNFISNEALNVHIGRKHRVASPPSLTSATGKEKDRDKATDVHLINTIKMELEIKQLKERLNAAERNIKERSTGSKRVSPRQEQRHVGIQSNLAEPKEKDEDSGEARQSEASERKEQLTGLAERLSNFEEWQTQLKQSNEQFIQDINKRLEGLSHALEQSKQASASTPPLEDRVATPCLEDLERILTEKVAEIGKVSAHRLEEVVYHLEEGYKEKLGALERELKQLSVQKVQPEPVQTVPVASKIPKPVVRKEETNIDRIRKQVESEFLKQKHDDDTYSIEEAPRKGSEKPFPQLVTQVQVVEKEQPSAGSSDSNPTYTKSPREPAPNKQETKEATDVSDSLSQEETENEEERSLTEEEGTDVPTSGSEAAREDPTPKTIKPSGRIIKSPQKPLTRKDARKMVNRKLMSHGFDMKSKGISHNSLKRVNSELTEHRNKLKLQHPHFYATRNRIRKFVEKLCSAKFSERAEMLLKHKSPLKPMEVPGKGIPRSAISEKSEEDIASSQGEEQTDEQTDSSEQQTRSPSPQRLVSRDFKARLEEILVKPAATIRGASKSSLSSRPVPLPRKRVMFNTTEDGKSFNDSDDNLK

binding (GST-DZIP1-C (aa 294–737) [2]): no binding
B2: His-Rab8 (natural protein, Drosophila, UniProt O18338 1-207, looked up)
chain: MAKTYDYLFKLLLIGDSGVGKTCILFRFSEDAFNTTFISTIGIDFKIRTIELDNKKIKLQIWDTAGQERFRTITTAYYRGAMGIMLVYDITQEKSFENIKNWIRNIEENASADVEKMLLGNKCELTDKRQVSKERGEQLAIEYGIKFMETSAKASINVEEAFLTLASDIKAKTEKRMEANNPPKGGHQLKPMDSRTKDSWLSRCSLL
notes: Drosophila Rab8; Cloned into pET28a; source: E. coli BL21 (DE3), purified (His resin)

binding (GST-DZIP1-N (aa 1–293)): no binding
binding (GST-DZIP1-C (aa 294–737) [3]): no binding
B3: His-CEP290-ΔN (aa 888–1978) (domain or fragment, UniProt Q9W0M1 888-1978)
chain: IHSQQRLLNEITDNHINLRHLVADLQSSSDEKLMLAKVQRDLDSVKAECSRLETEREKLQLKADCLQTQLEASELSLKQTQQDFQQERTNSDIKHKFLQHSLFMLKDKYAKFTPLVFLTNFVFAYQKFQRRLEEEQVQQRHRDHTALIDEVTAVVQAKIGLNEESSQQLVKLIKSETQTRLLEQRCEILQAKQEELVRELGELRMSQATDTEHWSTIQALFGEGEPRSQLKVDAETNTDAVAPNLAMRRAVQLIDRESSPIGSPLRKHPHLDTATQTLEAQVEFSETAVQTNGILSQQNQAVQTADAVEDNRRDSRAELQKMQETLQEANQRIEILGKQLEASRSESRESASPQGGVVEKTILSFHTLLLEKDQSIQKYQDLLQTERDQSQQALSKQVAENESLRATVNNLNFNIKTKDAEIQGLKEKLRQKPEVPVERNPSTDSRSSSSSDSSVNELTDEKIEELFESSSVERPPQEELEVPVEAGPENIVTEEPEGEEEKQDTEELKEVPTLHKQIKDLKDKLEYSERSLKTREEEVDILKEKLKLCQEREKSVESTVNPELDQLRIFLDEKDKHIKDLMDTLKNFHDDQQRYIKDTSNFSEDQIAKLAADLNRTEATNKIYHTQMEALRRQLANVTQREKQARDLSQSLRQQLLKRPVVSIKTELNARVKNENQLKRIQQLELDLDEARGQLQRQQTLLEAKRTRSANEVQLWEKQKRYQQQAEKTKARLEETELALEKTRALLQAARTTIARLEKDKQILESKLGRNGPPSNSSGGNNLKCCRTPSCPNLQHVGVSKFAPSPSESPETYTGPSSECSSPAHHHTQIFDQSQLDLIEALKSRIELQQRKIIAMELEGRGSNALTTELEKLQERCQAIEAQNIRLEARNLQLQLDSDLLRQGDSSDRLQKRIKHLEDYIMALKEEMARNESRRELGSGLKVSTNQGQSAEQTILSLRNLVEKLRSENKFLKDGRRSTESRSSMDSTPAEAARLQQQHAEALEKISALQQELQKRTTKCSQCGGRSKDAANEELKFIKEQLVKKTQLLQKAKVLLTRAAAKEKVLREQLALWKRKCSELQNVPVIDEISE
